# PubChem BioAssay AID602196, INSERM, 2012
# Screen: 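Modifiers of cisplatin sensitivity in A549 cells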
# System: human A549 lung cancer cells
# Knock-down reagent: siRNA pair against human genes
# Timing: 48 h transfection before cisplatin; time from cisplatin to read-out not stated
# Treatment: cisplatin at a dose killing half of control-siRNA cells; exact dose and duration not given
# Measured: 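Shift in cisplatin death relative to control siRNA, from -50 (all cells die) to +50 (no cells die); siRNAs harmful on their own scored 0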
# Direction: two-siRNA summed score (-2 to +2): higher = both siRNAs protect from cisplatin killing; -2 means both sensitise; mean protection from cisplatin (shift in death) and protection from cisplatin (shift in death), siRNA C and protection from cisplatin (shift in death), siRNA D: higher = protection from cisplatin killing
# Call rule: 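siRNAs harmful alone (LDH or WST-1) get 0; others get +1 for less and -1 for more cisplatin killing; genes are active when the two siRNAs give the same sign, summing to ±2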
# Meaning of the calls: active = both siRNAs shift cisplatin killing the same way; inactive = no consistent shift, or siRNA harmful alone
# The deposit covers about 23,000 reagents; below is a random part of them. Of all reagents, 455 (2%) are marked active. 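Active includes both protection and sensitisation; some change values fall well beyond the stated -50 to +50 range.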 A number with no mark means an inactive call. Not given: the amount of reagent.
gene symbol,PubChem SID,two-siRNA summed score (-2 to +2),mean protection from cisplatin (shift in death) (%),"protection from cisplatin (shift in death), siRNA C (%)","protection from cisplatin (shift in death), siRNA D (%)"
NECTIN2,SID131512664,0,5.7,28.8,-17.3
HAUS2,SID131513563,0,6.7,0.6,12.9
ESRRG,SID131509772,0,2.5,14.7,-9.7
AQP6,SID131513816,0,7.1,3.3,10.8
KIAA1912,SID131509174,0,1.9,-4.9,8.6
PSPC1,SID131501646,-1,-8.4,-12.7,-4.1
LOC442392,SID131520509,1,10.1,-2.4,22.7
EFHB,SID131514127,0,7.4,8.9,5.9
PRAMEF30P,SID131512645,0,5.7,7.6,3.8
MACROH2A1,SID131511328,0,4.2,-3,11.4
LOC124512,SID131519602,1,6.6,15.7,-2.5

Entries above whose gene name starts with P or p:
gene symbol,PubChem SID,two-siRNA summed score (-2 to +2),mean protection from cisplatin (shift in death) (%),"protection from cisplatin (shift in death), siRNA C (%)","protection from cisplatin (shift in death), siRNA D (%)"
PSPC1,SID131501646,-1,-8.4,-12.7,-4.1
PRAMEF30P,SID131512645,0,5.7,7.6,3.8

More entries follow.
gene symbol,PubChem SID,two-siRNA summed score (-2 to +2),mean protection from cisplatin (shift in death) (%),"protection from cisplatin (shift in death), siRNA C (%)","protection from cisplatin (shift in death), siRNA D (%)"
KCTD17,SID131512387,0,5.4,3.1,7.8
LOC389107,SID131510503,0,3.3,11.5,-4.8
ABCA13,SID131521637,1,14.3,6.1,22.4
LOC442610,SID131511065,0,3.9,4.7,3.2
TMEM184A,SID131517029,0,12.2,4.6,19.8
MRPS27,SID131521910,1,15.4,32.1,-1.3
SFTPD,SID131505472,0,-3.1,-1.2,-4.9
ESAM,SID131518886,0,37.8,17.5,58.1
TCOF1,SID131512067,0,5.1,-2.1,12.2
PCSK1,SID131522361,1,17.9,13.5,22.3
CD46,SID131518222,0,17.3,20.5,14.2
LOC440481,SID131501971,-1,-6.2,-14,1.6
